# Assay results: the supplement of paper PMC6411743
# Chains of the proteins cited; added tags and fusions are not shown. Lines headed by an entry give the natural chain unless they say otherwise; changes in a name come on top.
# UniProt Q86T24: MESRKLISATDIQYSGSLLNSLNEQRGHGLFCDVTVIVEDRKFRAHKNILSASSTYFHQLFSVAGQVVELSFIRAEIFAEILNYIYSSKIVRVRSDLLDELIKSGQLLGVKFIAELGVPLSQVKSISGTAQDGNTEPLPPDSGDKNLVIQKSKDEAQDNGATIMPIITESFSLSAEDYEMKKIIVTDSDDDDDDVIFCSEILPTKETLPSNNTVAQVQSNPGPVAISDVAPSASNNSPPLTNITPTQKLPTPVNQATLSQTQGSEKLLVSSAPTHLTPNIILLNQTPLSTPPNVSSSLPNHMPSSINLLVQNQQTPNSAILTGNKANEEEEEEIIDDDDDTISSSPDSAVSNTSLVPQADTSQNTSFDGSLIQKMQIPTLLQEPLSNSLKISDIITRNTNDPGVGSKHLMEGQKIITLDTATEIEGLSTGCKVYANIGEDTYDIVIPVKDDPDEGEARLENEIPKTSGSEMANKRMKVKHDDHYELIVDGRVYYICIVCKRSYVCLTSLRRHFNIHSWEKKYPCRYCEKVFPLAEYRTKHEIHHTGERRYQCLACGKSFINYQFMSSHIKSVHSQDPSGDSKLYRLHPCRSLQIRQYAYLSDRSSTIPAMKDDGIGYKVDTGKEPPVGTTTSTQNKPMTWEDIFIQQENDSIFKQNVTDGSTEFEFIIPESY
# UniProt Q70Z53: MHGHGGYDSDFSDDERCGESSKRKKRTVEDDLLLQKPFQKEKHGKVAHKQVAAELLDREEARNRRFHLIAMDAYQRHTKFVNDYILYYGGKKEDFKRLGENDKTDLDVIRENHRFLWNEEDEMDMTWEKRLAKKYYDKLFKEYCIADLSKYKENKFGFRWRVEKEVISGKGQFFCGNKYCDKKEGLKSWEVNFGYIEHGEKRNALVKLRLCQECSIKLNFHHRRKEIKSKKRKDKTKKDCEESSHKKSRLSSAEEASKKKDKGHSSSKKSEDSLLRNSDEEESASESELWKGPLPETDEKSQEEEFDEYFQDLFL
# UniProt Q6UVJ0: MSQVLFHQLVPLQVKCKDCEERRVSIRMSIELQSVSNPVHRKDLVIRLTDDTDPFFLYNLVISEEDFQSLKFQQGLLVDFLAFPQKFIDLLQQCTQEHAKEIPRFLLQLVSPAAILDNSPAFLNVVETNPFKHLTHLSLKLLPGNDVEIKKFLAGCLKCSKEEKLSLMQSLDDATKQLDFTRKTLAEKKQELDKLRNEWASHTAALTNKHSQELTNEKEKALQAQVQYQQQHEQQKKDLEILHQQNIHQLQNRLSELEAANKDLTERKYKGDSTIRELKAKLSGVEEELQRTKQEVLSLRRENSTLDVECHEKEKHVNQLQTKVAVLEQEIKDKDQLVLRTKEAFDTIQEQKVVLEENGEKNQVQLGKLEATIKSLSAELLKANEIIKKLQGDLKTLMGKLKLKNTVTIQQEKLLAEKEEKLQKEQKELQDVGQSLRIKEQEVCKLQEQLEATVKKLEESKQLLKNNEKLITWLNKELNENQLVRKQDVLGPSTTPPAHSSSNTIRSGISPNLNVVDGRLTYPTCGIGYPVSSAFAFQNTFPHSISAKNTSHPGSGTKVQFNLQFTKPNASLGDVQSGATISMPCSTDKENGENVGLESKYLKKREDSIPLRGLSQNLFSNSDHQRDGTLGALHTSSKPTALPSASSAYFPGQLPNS
# UniProt Q7L576: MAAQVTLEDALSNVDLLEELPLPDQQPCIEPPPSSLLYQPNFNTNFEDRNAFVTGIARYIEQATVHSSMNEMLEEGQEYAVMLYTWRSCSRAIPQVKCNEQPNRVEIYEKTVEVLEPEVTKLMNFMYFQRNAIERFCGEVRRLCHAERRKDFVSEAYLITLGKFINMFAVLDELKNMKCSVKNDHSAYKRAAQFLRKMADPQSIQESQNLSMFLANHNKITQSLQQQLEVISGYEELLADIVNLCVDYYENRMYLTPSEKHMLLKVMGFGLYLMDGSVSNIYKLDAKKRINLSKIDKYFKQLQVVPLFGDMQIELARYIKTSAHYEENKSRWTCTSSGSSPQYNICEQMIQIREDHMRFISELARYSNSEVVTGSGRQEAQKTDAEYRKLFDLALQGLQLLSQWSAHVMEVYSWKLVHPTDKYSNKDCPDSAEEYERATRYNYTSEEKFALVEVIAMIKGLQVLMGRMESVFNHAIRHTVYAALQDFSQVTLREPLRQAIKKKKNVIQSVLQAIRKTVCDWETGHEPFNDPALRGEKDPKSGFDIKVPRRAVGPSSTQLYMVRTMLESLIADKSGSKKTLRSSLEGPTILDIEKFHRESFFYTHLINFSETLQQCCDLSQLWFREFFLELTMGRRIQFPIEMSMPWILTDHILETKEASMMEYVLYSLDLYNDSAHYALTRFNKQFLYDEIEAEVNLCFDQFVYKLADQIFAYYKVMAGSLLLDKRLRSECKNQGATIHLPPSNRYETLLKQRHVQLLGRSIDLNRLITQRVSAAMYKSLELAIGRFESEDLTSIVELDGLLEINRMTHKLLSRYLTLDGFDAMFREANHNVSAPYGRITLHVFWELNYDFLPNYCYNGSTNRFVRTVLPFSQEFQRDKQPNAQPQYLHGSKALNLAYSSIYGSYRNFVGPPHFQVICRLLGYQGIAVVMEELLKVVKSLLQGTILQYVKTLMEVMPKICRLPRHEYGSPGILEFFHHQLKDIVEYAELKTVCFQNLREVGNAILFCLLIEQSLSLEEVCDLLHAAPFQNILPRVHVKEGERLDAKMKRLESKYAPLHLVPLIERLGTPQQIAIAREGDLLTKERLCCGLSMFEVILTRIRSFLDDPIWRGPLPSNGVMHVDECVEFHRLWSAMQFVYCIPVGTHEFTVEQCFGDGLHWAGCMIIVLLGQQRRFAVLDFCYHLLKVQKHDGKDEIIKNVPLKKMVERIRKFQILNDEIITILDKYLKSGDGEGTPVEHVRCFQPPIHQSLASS
# UniProt Q6DKK2: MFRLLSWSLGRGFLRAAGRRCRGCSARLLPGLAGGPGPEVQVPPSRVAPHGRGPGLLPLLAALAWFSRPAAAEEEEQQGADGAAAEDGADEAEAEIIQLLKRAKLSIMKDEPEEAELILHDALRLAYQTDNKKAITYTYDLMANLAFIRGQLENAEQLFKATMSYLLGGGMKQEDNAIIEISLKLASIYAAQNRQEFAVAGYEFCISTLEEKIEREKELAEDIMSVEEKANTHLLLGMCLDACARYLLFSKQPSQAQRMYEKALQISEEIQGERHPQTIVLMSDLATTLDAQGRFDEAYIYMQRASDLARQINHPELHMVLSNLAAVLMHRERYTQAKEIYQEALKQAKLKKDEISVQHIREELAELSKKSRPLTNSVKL
# UniProt Q86VS8: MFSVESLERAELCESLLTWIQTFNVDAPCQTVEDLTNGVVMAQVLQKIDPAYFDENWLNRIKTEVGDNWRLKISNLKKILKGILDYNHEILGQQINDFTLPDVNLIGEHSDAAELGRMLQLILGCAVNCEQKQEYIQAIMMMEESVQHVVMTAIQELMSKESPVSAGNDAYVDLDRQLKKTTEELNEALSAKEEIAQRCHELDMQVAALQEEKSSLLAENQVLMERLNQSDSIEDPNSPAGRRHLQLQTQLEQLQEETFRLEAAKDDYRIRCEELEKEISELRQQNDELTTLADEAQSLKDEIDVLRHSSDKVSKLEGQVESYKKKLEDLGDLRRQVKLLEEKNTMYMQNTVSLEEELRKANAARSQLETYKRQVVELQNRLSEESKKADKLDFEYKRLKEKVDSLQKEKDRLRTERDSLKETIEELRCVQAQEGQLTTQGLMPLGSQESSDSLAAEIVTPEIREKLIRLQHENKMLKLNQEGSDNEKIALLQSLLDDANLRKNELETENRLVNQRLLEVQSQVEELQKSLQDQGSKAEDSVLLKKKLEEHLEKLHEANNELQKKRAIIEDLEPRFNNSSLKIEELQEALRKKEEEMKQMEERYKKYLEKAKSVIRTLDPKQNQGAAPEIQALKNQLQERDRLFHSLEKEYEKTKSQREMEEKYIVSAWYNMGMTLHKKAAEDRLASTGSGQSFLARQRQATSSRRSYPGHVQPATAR
# UniProt Q6PL24: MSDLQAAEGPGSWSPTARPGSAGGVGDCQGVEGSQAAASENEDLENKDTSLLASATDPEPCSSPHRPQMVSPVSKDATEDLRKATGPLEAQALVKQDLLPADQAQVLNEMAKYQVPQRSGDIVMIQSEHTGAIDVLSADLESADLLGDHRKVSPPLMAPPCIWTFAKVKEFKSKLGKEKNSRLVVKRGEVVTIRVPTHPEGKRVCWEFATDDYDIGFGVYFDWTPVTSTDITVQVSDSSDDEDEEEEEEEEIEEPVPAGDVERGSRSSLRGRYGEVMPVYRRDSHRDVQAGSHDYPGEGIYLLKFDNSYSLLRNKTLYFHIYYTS
# UniProt Q6ZT12: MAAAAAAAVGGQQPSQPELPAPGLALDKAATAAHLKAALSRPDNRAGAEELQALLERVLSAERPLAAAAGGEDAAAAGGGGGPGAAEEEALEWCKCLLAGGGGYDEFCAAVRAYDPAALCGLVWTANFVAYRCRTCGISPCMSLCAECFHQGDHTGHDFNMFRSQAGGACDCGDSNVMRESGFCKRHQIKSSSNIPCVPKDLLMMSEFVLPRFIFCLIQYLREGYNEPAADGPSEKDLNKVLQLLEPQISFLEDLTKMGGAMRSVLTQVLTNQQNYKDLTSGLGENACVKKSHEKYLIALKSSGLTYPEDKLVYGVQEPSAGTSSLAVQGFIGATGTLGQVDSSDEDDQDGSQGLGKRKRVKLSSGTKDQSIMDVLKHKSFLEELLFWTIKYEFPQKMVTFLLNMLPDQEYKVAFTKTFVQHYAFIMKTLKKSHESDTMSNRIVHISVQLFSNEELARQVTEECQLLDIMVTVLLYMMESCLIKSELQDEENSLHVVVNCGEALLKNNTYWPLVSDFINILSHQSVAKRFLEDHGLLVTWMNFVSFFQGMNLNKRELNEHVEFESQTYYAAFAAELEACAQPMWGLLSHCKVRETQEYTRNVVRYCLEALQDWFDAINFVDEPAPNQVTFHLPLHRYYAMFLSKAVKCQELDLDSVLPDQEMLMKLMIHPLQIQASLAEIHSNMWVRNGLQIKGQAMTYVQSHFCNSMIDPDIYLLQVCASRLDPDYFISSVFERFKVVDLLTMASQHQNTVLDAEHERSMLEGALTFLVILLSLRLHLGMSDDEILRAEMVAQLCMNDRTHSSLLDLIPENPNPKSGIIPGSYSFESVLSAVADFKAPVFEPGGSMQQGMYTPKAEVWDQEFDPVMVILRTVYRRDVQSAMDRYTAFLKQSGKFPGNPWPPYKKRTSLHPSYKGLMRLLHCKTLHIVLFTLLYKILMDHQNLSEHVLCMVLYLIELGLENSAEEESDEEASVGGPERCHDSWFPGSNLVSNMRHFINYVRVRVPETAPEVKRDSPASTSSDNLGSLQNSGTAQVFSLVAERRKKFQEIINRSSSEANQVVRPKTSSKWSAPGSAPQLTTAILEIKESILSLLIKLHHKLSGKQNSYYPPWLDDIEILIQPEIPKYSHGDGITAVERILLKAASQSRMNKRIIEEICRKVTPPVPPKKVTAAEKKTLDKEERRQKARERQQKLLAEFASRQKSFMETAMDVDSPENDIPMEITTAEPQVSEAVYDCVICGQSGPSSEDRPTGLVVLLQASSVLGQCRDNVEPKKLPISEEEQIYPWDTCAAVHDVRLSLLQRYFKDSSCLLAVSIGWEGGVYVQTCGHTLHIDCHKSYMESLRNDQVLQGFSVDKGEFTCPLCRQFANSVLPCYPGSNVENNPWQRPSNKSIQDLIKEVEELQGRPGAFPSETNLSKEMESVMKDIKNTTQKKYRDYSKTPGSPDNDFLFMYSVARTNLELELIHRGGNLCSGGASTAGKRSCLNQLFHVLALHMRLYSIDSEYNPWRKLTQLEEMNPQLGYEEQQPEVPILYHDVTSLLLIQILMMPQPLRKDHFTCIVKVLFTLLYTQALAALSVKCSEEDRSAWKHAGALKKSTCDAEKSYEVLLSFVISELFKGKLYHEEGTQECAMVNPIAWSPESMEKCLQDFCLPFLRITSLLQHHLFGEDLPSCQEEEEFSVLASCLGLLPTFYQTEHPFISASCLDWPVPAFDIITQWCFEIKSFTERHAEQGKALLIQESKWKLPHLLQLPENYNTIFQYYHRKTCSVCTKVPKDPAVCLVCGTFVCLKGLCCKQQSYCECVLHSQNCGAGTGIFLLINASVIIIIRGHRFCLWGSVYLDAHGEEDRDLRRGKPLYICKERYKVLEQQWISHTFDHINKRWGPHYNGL
# UniProt Q99598: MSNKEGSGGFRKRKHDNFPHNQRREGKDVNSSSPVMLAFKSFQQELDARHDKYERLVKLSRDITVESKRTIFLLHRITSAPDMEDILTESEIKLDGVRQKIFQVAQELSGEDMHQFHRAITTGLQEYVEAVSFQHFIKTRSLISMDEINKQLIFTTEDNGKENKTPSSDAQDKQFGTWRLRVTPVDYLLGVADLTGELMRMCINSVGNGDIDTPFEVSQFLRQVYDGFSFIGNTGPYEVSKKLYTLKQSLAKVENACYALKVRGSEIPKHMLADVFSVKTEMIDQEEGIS
# ± gives the standard deviation of the averaged measurements. The list shows a part of the results.
# Compound: Nc1nc2c(ncn2[C@@H]2O[C@H](COP(=O)(O)OP(=O)(O)OP(=O)(O)O)[C@@H](O)[C@H]2O)c(=O)[nH]1 [guanosine triphosphate]
# Test: NP40-soluble protein abundance relative to vehicle (solubility fold change) (ratio); higher = more soluble protein in presence of GTP
# How it was run: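 Across three independent experiments, values are fold changes against the detergent-processed vehicle for each replicate, based on vsn-normalised intensities. The samples were Jurkat crude lysate treated with eight concentrations (0.1 to 10 mM) for 10 min at room temperature and then 3 min at 37 °C. Lysate was solubilised with 0.8% NP40 and benzonase, ultracentrifuged, and the supernatant analysed by TMT-labelled LC-MS/MS.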
Target,NP40-soluble protein abundance (concentration: 0.1mM),NP40-soluble protein abundance (concentration: 0.5mM),NP40-soluble protein abundance (concentration: 1mM),NP40-soluble protein abundance (concentration: 2mM),NP40-soluble protein abundance (concentration: 4mM),NP40-soluble protein abundance (concentration: 6mM),NP40-soluble protein abundance (concentration: 8mM),NP40-soluble protein abundance (concentration: 10mM)
ZBTB33 (UniProt Q86T24),1.02 ± 0.13,1.05 ± 0.04,1.01 ± 0.088,0.97 ± 0.12,0.988 ± 0.1,0.959 ± 0.048,0.992 ± 0.1,0.986 ± 0.099
TMEM65 (UniProt Q6PI78),1.1 ± 0.37,0.919 ± 0.079,0.932 ± 0.094,0.996 ± 0.21,0.921 ± 0.084,0.849 ± 0.12,0.853 ± 0.074,0.88 ± 0.089
UniProt Q86WQ0 and related entries,0.973 ± 0.06,0.939 ± 0.017,0.882 ± 0.094,0.9 ± 0.082,0.884 ± 0.14,0.897 ± 0.096,0.849 ± 0.13,0.862 ± 0.099
UniProt Q70Z53,1.01 ± 0.057,1.01 ± 0.022,0.931 ± 0.035,0.943 ± 0.045,0.912 ± 0.051,0.913 ± 0.033,0.926 ± 0.048,0.894 ± 0.057
SASS6 (UniProt Q6UVJ0),1.02 ± 0.052,0.941 ± 0.042,1.02 ± 0.032,1 ± 0.058,0.9773 ± 0.007,0.963 ± 0.051,1.002 ± 0.0092,0.956 ± 0.023
UniProt Q6IA86 and related entries,1.11 ± 0.12,1.08 ± 0.16,0.983 ± 0.12,1.06 ± 0.23,1.08 ± 0.17,0.977 ± 0.17,0.959 ± 0.092,0.984 ± 0.16
SLC25A24 (UniProt Q6NUK1),0.934 ± 0.055,0.93 ± 0.033,0.857 ± 0.039,0.854 ± 0.014,0.837 ± 0.026,0.845 ± 0.024,0.809 ± 0.061,0.817 ± 0.057
PRPF39 (UniProt Q86UA1),1.08 ± 0.083,1.05 ± 0.063,1.07 ± 0.08,0.999 ± 0.057,1 ± 0.079,0.991 ± 0.052,1.03 ± 0.038,0.955 ± 0.043
SLC27A4 (UniProt Q6P1M0),1.04 ± 0.011,1.02 ± 0.023,1.05 ± 0.018,1.03 ± 0.017,1.07 ± 0.023,1.05 ± 0.02,1.14 ± 0.064,1.12 ± 0.041
UniProt Q5VZE5,1.04 ± 0.025,1.08 ± 0.016,1.01 ± 0.021,1.01 ± 0.059,0.99 ± 0.058,0.982 ± 0.018,1.01 ± 0.014,0.964 ± 0.021
UniProt Q7Z460-4,0.99 ± 0.059,1.02 ± 0.065,1.03 ± 0.059,1.03 ± 0.072,1.02 ± 0.054,1.03 ± 0.064,1.04 ± 0.056,1.04 ± 0.075
UniProt Q5TC82 and related entries,0.966 ± 0.096,0.928 ± 0.071,0.981 ± 0.17,0.968 ± 0.11,0.919 ± 0.057,0.869 ± 0.082,0.937 ± 0.065,0.921 ± 0.12
UniProt Q86SK9 and related entries,0.9765 ± 0.008,1.01 ± 0.043,0.929 ± 0.065,0.954 ± 0.028,0.914 ± 0.055,0.989 ± 0.055,0.904 ± 0.012,0.924 ± 0.066
UniProt Q7L099-3|Q7L099-4,1 ± 0.036,1 ± 0.068,0.972 ± 0.041,0.958 ± 0.061,0.93 ± 0.034,0.934 ± 0.075,0.954 ± 0.032,0.941 ± 0.07
UniProt Q7L4I2 and related entries,0.98 ± 0.099,0.999 ± 0.094,1.06 ± 0.013,0.991 ± 0.2,0.895 ± 0.11,0.918 ± 0.14,0.942 ± 0.06,0.951 ± 0.11
CYFIP1 (UniProt Q7L576),1.14 ± 0.13,1.13 ± 0.1,0.964 ± 0.12,1.02 ± 0.29,1.07 ± 0.15,1.02 ± 0.15,0.948 ± 0.066,0.955 ± 0.15

# Quoted from the listing:
# SASS6 (UniProt Q6UVJ0) | NP40-soluble protein abundance (concentration: 0.5mM): 0.941 ± 0.042
# UniProt Q7Z460-4 | NP40-soluble protein abundance (concentration: 8mM): 1.04 ± 0.056

# Next part

Target,NP40-soluble protein abundance (concentration: 0.1mM),NP40-soluble protein abundance (concentration: 0.5mM),NP40-soluble protein abundance (concentration: 1mM),NP40-soluble protein abundance (concentration: 2mM),NP40-soluble protein abundance (concentration: 4mM),NP40-soluble protein abundance (concentration: 6mM),NP40-soluble protein abundance (concentration: 8mM),NP40-soluble protein abundance (concentration: 10mM)
TTC19 (UniProt Q6DKK2),0.892 ± 0.1,0.806 ± 0.038,1.03 ± 0.15,1.03 ± 0.091,0.984 ± 0.13,1 ± 0.097,0.926 ± 0.13,0.98 ± 0.17
CIAPIN1 (UniProt Q6FI81),0.958 ± 0.029,0.945 ± 0.028,0.958 ± 0.043,0.932 ± 0.048,0.905 ± 0.05,0.92 ± 0.079,0.91 ± 0.03,0.92 ± 0.05
UniProt Q5VIR6-4,1.04 ± 0.028,1.07 ± 0.02,1.04 ± 0.049,1.05 ± 0.016,1.04 ± 0.03,0.975 ± 0.054,1.01 ± 0.054,0.993 ± 0.023
GRAMD4 (UniProt Q6IC98),1.01 ± 0.04,1.01 ± 0.011,0.963 ± 0.047,0.962 ± 0.045,0.951 ± 0.031,0.956 ± 0.035,0.9823 ± 0.0076,0.956 ± 0.041
UniProt Q86W50,0.9903 ± 0.0097,1.006 ± 0.009,0.955 ± 0.042,0.971 ± 0.025,0.934 ± 0.047,0.936 ± 0.05,0.91 ± 0.061,0.929 ± 0.056
UniProt Q7Z3K3 and related entries,0.956 ± 0.026,0.989 ± 0.037,1.01 ± 0.034,1.06 ± 0.065,1.14 ± 0.08,1.22 ± 0.1,1.26 ± 0.14,1.28 ± 0.1
HOOK3 (UniProt Q86VS8),0.896 ± 0.025,0.854 ± 0.079,0.968 ± 0.017,0.948 ± 0.084,0.959 ± 0.053,0.971 ± 0.064,0.919 ± 0.099,1.04 ± 0.027
TMED8 (UniProt Q6PL24),1.03 ± 0.033,0.997 ± 0.023,0.95 ± 0.03,0.93 ± 0.035,0.938 ± 0.087,0.899 ± 0.049,0.907 ± 0.063,0.894 ± 0.07
SESTD1 (UniProt Q86VW0),0.9781 ± 0.0072,1.03 ± 0.074,1.02 ± 0.064,0.872 ± 0.042,0.978 ± 0.072,0.975 ± 0.14,0.961 ± 0.044,0.913 ± 0.031
UBE2Q1 (UniProt Q7Z7E8),0.968 ± 0.062,0.953 ± 0.044,0.929 ± 0.064,0.922 ± 0.048,0.88 ± 0.055,0.912 ± 0.077,0.874 ± 0.071,0.886 ± 0.056
FBXO38 (UniProt Q6PIJ6),1.07 ± 0.038,1.09 ± 0.04,1.09 ± 0.053,1.1 ± 0.056,1.09 ± 0.028,1.08 ± 0.055,1.14 ± 0.11,1.11 ± 0.097
UniProt Q6GPH4 and related entries,1.05 ± 0.033,1.01 ± 0.032,0.9713 ± 0.0081,0.994 ± 0.028,0.934 ± 0.066,0.919 ± 0.027,1.02 ± 0.039,0.927 ± 0.089
UniProt Q6ZT12 and related entries,0.974 ± 0.1,0.955 ± 0.14,0.917 ± 0.017,0.868 ± 0.048,0.866 ± 0.055,0.862 ± 0.057,0.849 ± 0.099,0.816 ± 0.082
Q5VVQ1 and related entries (UniProt Q99598),0.973 ± 0.012,0.994 ± 0.024,0.938 ± 0.015,0.933 ± 0.03,0.9215 ± 0.0076,0.934 ± 0.026,0.91 ± 0.021,0.9 ± 0.017
RINL (UniProt Q6ZS11),0.993 ± 0.22,1.03 ± 0.11,1 ± 0.087,1.04 ± 0.042,0.989 ± 0.15,0.9124 ± 0.0078,0.999 ± 0.13,1 ± 0.091
UniProt Q71SY5 and related entries,1.07 ± 0.054,1.01 ± 0.017,1.11 ± 0.053,1.12 ± 0.082,1.04 ± 0.024,1.08 ± 0.038,1.19 ± 0.14,1.13 ± 0.12
